Reference: patent publication US6365572B1 (Aventis Pharma Deutschland GmbH, priority 1999, dated 2002)
Starred links: 1 amine or outer side, 2 acyl side, 3 side chain; linkers in the order of their positions; H or OH if unused. Non-standard residues stand in square brackets, D forms with d. *: point of attachment. 2Nal = N[C@@H](Cc1ccc2ccccc2c1)C(=O)O; Suc = O=C(CCC(=O)[*:2])[*:1]; Bn = c1ccc(C*)cc1

Experiment: general procedure: Fmoc solid-phase peptide synthesis; polyethylene glycol-grafted polystyrene beads or TentaGel S NH2 (peptide libraries)
Conditions: late stage modification step
Substance “Suc-Pro[(3R)-2-Naphthyl]-Asn-Ala-Val-NH2” has a step yield of 9.5%.

Same assay, conditions: whole synthesis
For “Glutaryl-Nal(2)-Asn-Ser-Val-Gly-NH(CH2)3OH”, the “purity (crude or final not stated)” value was 75-95%.
In the case of “H-Arg-Asp-Nal(2)-Asn-Ser-Val-Gly-NH(CH2)3OH”, the “purity (crude or final not stated)” value is reported as 75-95%.
For “H-Asn-Ile-Asp-Pro-Asn-Ala-Val-Gly-NH(CH2)3OH”, the “purity (crude or final not stated)” value was >95%.
With “H-Asp-Ala(3,3-Diphenyl)-Asn-Ala-Val-Gly-NH(CH2)3OH” the “purity (crude or final not stated)” value was >95%.
In the case of “H-Asp-Ala[3-(3-Benzothienyl)]-Asn-Ala-Val-Gly-NH(CH2)3OH”, the “purity (crude or final not stated)” value is reported as >95%.
With “H-Asp-Ala[3-(3-pyridyl)-Asn-Ser-Val-Gly-NH(CH2)3OH” the “purity (crude or final not stated)” value was 50-75%.
In the case of “H-Asp-Ala[3-(4-Biphenyl)]-Asn-Ala-Val-Gly-NH(CH2)3OH”, the “purity (crude or final not stated)” value is reported as >95%.
In the case of H-Asp-Hof-Asn-Ser-Val-Gly-NH(CH2)3OH, the “purity (crude or final not stated)” value is reported as 50-75%.
For H-Asp-Nal(1)-Asn-Ala-Val-Gly-NH(CH2)3OH, the “purity (crude or final not stated)” value was >95%.
With H-Asp-Nal(2)-Asn-Ala-Ile-Gly-NH(CH2)3OH the “purity (crude or final not stated)” value was >95%.
In the case of H-Asp-Nal(2)-Asn-Ala-Val-Gly-NH(CH2)3OH, the “purity (crude or final not stated)” value is reported as >95%.
In the case of H-Asp-Nal(2)-Asn-Asp-Ile-Gly-NH(CH2)3OH, the “purity (crude or final not stated)” value is reported as >95%.
For H-Asp-Nal(2)-Asn-Asp-Val-Gly-NH(CH2)3OH, the “purity (crude or final not stated)” value was >95%.
For H-Asp-Nal(2)-Asn-Ser-Val-Gly-NH(CH2)3OH, the “purity (crude or final not stated)” value was >95%.
With H-Asp-Phe-Asn-Ala-Val-Gly-NH(CH2)3OH the “purity (crude or final not stated)” value was >95%.
With H-Asp-Pro-Asn-Ala-Val-Gly-NH(CH2)3OH the “purity (crude or final not stated)” value was >95%.
In the case of “H-Asp-Pro[(3R)-Phenyl]-Asn-Ser-Val-Gly-NH(CH2)3OH”, the “purity (crude or final not stated)” value is reported as 50-75%.
In the case of “H-Asp-Pro[(3S)-Phenyl]-Asn-Ser-Val-Gly-NH(CH2)3OH”, the “purity (crude or final not stated)” value is reported as 50-75%.
With H-Asp-Trp-Asn-Ala-Val-Gly-NH(CH2)3OH the “purity (crude or final not stated)” value was >95%.
With H-Asp-Tyr-Asn-Ala-Va-Gly-NH(CH2)3OH the “purity (crude or final not stated)” value was >95%.
With H-Asp-nal(2)-Asn-Ser-Val-Gly-NH(CH2)3OH the “purity (crude or final not stated)” value was 75-95%.
For “H-Cit-Asp-Nal(2)-Asn-Ser-Val-Gly-NH(CH2)3OH”, the “purity (crude or final not stated)” value was >95%.
For H-D[2Nal]NSV-NH2, the “purity (crude or final not stated)” value was 75-95%.
In the case of H-D[2Nal]NSVG-NH2, the “purity (crude or final not stated)” value is reported as 75-95%.
With “H-Lys-Asp-Nal(2)-Asn-Ser-Val-Gly-NH(CH2)3OH” the “purity (crude or final not stated)” value was >95%.
In the case of “H-βAsp-Nal(2)-Asn-Ser-Val-Gly-NH(CH2)3OH”, the “purity (crude or final not stated)” value is reported as 75-95%.
For “Phthalyl-Nal(2)-Asn-Ser-Val-Gly-NH(CH2)3OH”, the “purity (crude or final not stated)” value was 50-75%.
With Suc-Ala[3-(4-Biphenyl)]-Asn-Ala-Val-NH2 the “purity (crude or final not stated)” value was >95%.
In the case of Suc-Nal(2)-Asn-Ala-Gly(2-tBu)-NH2, the “purity (crude or final not stated)” value is reported as >95%.
For Suc-Nal(2)-Asn-Ala-Val-Gly-NH(CH2)3OH, the “purity (crude or final not stated)” value was >95%.
For Suc-Nal(2)-Asn-Ala-Val-N(CH3)2, the “purity (crude or final not stated)” value was 75-95%.
In the case of Suc-Nal(2)-Asn-Ala-Val-ol, the “purity (crude or final not stated)” value is reported as >95%.
With Suc-Nal(2)-Asn-Ser-Val-Gly-NH(CH2)3OH the “purity (crude or final not stated)” value was >95%.
With “Suc-Pro[(3R)-2-Naphthyl]-Asn-Ala-Val-NH2” the “purity (crude or final not stated)” value was >95%.
For Suc-Pro[(3R)-2-Naphthyl]-Asn-Ala-Val-ol, the “purity (crude or final not stated)” value was >95%.
In the case of Suc-Y(Bn)NAV-NH2, the “purity (crude or final not stated)” value is reported as >95%.
With Suc-[2Nal]NAV-NH2 the “purity (crude or final not stated)” value was >95%.
In the case of Suc-[2Nal]NAV-OH, the “purity (crude or final not stated)” value is reported as >95%.
With Suc-[2Nal]NGV-NH2 the “purity (crude or final not stated)” value was >95%.
